Test results published in paper PMC10076531.
These are yes or no findings as the source states them, for the method shown. Some binding calls cover weakened binding; strength is not graded here. For part of these data: Where a sequence is shown, tags or fusion partners need not be part of it.

Protein sequences, listed by entry. Tags and fused reporters are not part of them. Residues count along the entry.
UniProt Q8IZN3, residues 2-488: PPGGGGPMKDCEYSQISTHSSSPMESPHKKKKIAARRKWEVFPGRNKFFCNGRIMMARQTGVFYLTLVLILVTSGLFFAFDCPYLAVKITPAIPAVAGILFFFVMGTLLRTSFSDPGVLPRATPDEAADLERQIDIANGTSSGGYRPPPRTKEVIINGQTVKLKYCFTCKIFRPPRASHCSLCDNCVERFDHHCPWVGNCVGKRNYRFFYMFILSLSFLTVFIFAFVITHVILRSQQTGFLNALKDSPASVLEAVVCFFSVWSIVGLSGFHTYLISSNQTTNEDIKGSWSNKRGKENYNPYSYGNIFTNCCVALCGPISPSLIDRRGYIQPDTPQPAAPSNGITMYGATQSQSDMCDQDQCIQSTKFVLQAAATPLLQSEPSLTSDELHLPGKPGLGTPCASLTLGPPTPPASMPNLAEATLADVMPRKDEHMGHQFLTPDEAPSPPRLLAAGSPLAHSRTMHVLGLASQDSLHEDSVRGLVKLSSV
UniProt Q9Y397, residues 2-364: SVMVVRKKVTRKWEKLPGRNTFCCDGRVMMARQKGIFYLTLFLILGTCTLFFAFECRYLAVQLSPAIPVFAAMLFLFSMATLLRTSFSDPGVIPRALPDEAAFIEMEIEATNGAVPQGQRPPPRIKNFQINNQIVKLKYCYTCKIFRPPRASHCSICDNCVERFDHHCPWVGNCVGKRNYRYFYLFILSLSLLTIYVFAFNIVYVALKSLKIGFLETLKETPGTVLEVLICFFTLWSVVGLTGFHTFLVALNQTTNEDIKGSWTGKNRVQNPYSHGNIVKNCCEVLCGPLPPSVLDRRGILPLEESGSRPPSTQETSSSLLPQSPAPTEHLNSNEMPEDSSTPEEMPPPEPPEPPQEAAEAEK
UniProt Q7Z5G4, residues 2-137: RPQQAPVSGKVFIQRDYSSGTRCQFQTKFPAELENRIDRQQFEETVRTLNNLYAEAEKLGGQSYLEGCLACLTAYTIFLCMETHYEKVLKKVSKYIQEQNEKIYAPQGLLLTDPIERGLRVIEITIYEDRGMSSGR

Key:
Test in all cases: SEC; the two strep-tagged proteins co-expressed in Sf9 cells, solubilised in 1% DDM, purified on StrepTactin resin, then Superdex 200 in 150 mM NaCl, 20 mM HEPES pH 7.4, 0.5 mM TCEP, 15% glycerol, 0.5 mM DDM; fractions on SDS-PAGE with Coomassie; both purified
[1] = target: DHHC14 with an N-terminal strep-tag (human) (UniProt Q8IZN3)
[2] = target: Palmitoyltransferase ZDHHC9 (DHHC9) with a C-terminal strep-tag (human) (UniProt Q9Y397)
[3] = target: T1, DHHC18 with an N-terminal strep-tag (human) (UniProt Q9NUE0)
T1 sequence: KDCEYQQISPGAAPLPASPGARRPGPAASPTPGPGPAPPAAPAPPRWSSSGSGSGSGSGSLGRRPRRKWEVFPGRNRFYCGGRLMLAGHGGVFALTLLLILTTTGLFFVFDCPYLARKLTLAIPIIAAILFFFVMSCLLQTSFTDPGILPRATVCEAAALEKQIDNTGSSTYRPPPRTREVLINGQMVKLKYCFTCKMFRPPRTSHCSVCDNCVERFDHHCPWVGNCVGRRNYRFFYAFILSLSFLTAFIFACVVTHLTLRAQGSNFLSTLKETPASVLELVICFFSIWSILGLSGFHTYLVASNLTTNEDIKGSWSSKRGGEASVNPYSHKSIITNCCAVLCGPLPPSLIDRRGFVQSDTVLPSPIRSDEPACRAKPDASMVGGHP

- binding [1]: binds
- binding [2]: binds
- binding [3]: binds
Substance: GCP16 (GOLGA7) with a C-terminal strep-tag (from UniProt Q7Z5G4 2-137)
